In publication PMC8773632:
Results are given in words; binding and its absence hold for the method and conditions named. In cells and extracts the contact can be indirect. Some binding calls cover weakened binding; strength is not graded here.

Sequences of proteins named here, by UniProt entry; tags and fusion partners are left off.
UniProt P51587: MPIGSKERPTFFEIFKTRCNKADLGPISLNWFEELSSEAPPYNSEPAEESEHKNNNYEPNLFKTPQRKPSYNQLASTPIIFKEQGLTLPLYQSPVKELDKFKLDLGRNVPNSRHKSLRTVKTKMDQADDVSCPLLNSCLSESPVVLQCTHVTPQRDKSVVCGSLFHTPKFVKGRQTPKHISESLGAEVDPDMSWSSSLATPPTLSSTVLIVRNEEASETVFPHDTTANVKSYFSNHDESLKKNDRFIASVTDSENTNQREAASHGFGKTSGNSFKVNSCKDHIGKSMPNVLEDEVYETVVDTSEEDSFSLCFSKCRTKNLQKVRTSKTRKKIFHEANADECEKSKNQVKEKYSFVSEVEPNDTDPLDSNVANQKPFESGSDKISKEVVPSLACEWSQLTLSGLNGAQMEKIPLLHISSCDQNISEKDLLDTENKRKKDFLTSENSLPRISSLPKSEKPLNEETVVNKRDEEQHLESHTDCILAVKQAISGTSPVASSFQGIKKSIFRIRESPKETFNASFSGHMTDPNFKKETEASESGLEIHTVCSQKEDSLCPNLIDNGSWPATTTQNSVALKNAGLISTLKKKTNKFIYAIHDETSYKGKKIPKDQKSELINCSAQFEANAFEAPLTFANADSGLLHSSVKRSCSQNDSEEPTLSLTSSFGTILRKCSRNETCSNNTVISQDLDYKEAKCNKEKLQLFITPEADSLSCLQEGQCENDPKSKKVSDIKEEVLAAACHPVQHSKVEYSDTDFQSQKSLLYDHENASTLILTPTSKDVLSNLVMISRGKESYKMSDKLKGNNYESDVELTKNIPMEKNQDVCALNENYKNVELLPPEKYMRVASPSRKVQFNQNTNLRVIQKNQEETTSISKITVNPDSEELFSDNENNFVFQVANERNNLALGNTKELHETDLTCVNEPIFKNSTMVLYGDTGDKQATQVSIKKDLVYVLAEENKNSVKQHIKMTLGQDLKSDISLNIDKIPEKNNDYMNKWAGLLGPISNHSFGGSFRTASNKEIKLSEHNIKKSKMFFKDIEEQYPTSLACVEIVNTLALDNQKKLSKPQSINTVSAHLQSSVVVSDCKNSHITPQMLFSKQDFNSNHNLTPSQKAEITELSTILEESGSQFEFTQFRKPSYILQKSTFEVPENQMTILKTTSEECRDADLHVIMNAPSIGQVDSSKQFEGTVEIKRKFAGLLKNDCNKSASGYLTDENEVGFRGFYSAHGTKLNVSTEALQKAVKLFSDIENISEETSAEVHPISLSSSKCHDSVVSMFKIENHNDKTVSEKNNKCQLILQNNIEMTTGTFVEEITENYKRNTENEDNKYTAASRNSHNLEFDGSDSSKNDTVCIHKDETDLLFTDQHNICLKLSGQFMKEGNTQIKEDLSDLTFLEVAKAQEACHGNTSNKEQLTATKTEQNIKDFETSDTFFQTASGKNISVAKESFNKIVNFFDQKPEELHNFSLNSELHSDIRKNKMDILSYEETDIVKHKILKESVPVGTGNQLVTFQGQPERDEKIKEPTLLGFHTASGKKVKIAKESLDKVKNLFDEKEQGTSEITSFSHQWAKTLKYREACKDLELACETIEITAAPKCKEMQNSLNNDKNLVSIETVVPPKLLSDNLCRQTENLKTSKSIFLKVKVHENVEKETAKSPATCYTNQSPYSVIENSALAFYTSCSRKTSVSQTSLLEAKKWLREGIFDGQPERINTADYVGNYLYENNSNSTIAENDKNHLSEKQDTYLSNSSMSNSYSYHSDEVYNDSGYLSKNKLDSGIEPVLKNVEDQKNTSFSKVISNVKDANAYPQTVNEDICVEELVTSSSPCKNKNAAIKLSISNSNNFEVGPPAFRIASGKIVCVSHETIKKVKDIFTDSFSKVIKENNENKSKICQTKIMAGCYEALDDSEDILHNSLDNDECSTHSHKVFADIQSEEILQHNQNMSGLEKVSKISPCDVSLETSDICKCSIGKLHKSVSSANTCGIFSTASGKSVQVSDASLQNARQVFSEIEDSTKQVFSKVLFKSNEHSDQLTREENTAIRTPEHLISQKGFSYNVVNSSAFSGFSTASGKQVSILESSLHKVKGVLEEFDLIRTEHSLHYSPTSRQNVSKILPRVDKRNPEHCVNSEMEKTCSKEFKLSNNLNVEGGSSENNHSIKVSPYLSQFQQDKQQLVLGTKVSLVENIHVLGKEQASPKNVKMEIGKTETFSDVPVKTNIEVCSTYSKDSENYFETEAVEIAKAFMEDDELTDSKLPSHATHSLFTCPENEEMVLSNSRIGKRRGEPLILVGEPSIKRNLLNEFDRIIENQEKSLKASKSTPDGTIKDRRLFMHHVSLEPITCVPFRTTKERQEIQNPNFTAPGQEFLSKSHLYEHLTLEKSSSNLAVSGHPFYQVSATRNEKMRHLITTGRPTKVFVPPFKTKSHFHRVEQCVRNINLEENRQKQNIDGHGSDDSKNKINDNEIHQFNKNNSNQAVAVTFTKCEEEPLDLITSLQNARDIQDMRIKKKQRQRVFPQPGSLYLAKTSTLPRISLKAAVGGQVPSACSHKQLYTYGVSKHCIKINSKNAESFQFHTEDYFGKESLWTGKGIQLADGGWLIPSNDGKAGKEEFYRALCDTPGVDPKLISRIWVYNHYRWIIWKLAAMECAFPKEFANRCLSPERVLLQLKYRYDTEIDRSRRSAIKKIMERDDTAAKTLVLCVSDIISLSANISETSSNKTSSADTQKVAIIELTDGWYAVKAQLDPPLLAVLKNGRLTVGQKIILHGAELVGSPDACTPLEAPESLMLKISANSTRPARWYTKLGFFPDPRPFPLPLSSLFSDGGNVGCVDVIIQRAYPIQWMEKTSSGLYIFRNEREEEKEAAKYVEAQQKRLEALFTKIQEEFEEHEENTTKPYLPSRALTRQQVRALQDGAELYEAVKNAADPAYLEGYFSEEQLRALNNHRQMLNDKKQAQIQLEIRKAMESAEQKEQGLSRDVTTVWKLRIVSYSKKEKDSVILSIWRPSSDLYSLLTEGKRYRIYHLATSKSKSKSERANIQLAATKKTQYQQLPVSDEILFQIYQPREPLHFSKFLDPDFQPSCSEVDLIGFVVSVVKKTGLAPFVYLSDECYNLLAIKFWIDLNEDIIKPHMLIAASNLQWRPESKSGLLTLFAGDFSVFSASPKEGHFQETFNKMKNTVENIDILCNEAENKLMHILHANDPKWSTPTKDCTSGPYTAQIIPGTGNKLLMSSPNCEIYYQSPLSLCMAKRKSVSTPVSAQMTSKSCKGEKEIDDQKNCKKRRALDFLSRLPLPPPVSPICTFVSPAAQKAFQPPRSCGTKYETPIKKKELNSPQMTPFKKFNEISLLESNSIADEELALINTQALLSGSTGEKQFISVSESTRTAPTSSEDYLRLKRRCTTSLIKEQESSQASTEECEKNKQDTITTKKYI

What was measured:
[1] = biological target: Flag-tagged BRCA2 (UniProt P51587); test: co-IP; HEK 293T cells expressing Flag-BRCA2, double thymidine block (10 mM) followed by a 9 h release to enrich S-phase cells; IP with anti-Flag M2 antibody, immunoblot with CDK5RAP3 antibody
[2] = biological target: Flag-tagged BRCA2 (UniProt P51587); test: condition: only cells left untreated (not synchronized in the S-phase); co-IP; HEK 293T cells expressing Flag-BRCA2, left untreated (not synchronised); IP with anti-Flag M2 antibody, immunoblot with CDK5RAP3 antibody
[3] = biological target: BRCA2, endogenous in HEK 293T cells (human (endogenous in HEK 293T)) (UniProt P51587); test: condition: only cells left untreated (not synchronized in the S-phase); co-IP; untransfected HEK 293T cells left untreated (not synchronised); IP with anti-BRCA2 antibody, immunoblot with CDK5RAP3 antibody
[4] = biological target: BRCA2, endogenous in HEK 293T cells (human (endogenous in HEK 293T)) (UniProt P51587); test: co-IP; untransfected HEK 293T cells synchronized to S-phase with 2 mM hydroxyurea for 18 h; IP with anti-BRCA2 antibody, immunoblot with CDK5RAP3 antibody

B1: CDK5RAP3, endogenous in HEK 293T cells (protein, UniProt Q96JB5 1-506)
chain: MEDHQHVPIDIQTSKLLDWLVDRRHCSLKWQSLVLTIREKINAAIQDMPESEEIAQLLSGSYIHYFHCLRILDLLKGTEASTKNIFGRYSSQRMKDWQEIIALYEKDNTYLVELSSLLVRNVNYEIPSLKKQIAKCQQLQQEYSRKEEECQAGAAEMREQFYHSCKQYGITGENVRGELLALVKDLPSQLAEIGAAAQQSLGEAIDVYQASVGFVCESPTEQVLPMLRFVQKRGNSTVYEWRTGTEPSVVERPHLEELPEQVAEDAIDWGDFGVEAVSEGTDSGISAEAAGIDWGIFPESDSKDPGGDGIDWGDDAVALQITVLEAGTQAPEGVARGPDALTLLEYTETRNQFLDELMELEIFLAQRAVELSEEADVLSVSQFQLAPAILQGQTKEKMVTMVSVLEDLIGKLTSLQLQHLFMILASPRYVDRVTEFLQQKLKQSQLLALKKELMVQKQQEALEEQAALEPKLDLLLEKTKELQKLIEADISKRYSGRPVNLMGTSL
In the case of B1, the binding [1] is reported as “binds”, the binding [2] is reported as “no binding” and the binding [3] is reported as “no binding”. The binding [4] was “binds”.
